Data reported in publication PMC8158815.

The chains behind the UniProt entries cited, without tags or fusion partners.
UniProt O00571: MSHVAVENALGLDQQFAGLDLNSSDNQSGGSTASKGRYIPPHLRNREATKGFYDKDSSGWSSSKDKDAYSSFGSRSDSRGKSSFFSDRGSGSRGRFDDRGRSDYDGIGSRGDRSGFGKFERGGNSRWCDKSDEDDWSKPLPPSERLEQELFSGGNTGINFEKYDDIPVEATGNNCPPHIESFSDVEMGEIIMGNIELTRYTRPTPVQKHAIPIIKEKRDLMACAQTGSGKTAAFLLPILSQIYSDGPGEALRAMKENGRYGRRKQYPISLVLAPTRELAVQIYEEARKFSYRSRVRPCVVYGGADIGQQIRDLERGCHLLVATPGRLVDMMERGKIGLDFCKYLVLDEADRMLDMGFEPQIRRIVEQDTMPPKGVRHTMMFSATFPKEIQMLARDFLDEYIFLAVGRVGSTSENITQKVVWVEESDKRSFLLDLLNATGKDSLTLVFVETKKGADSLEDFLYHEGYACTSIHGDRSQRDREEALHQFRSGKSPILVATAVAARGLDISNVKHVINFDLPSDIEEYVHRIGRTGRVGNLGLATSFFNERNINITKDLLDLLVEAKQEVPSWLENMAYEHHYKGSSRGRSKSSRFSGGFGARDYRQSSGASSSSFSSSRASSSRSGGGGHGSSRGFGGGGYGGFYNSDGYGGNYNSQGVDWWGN

Molecular target: T1, NLRP11-eGFP (stable HeLa FlpIn T-REx line) (human) (UniProt P59045)
T1 sequence: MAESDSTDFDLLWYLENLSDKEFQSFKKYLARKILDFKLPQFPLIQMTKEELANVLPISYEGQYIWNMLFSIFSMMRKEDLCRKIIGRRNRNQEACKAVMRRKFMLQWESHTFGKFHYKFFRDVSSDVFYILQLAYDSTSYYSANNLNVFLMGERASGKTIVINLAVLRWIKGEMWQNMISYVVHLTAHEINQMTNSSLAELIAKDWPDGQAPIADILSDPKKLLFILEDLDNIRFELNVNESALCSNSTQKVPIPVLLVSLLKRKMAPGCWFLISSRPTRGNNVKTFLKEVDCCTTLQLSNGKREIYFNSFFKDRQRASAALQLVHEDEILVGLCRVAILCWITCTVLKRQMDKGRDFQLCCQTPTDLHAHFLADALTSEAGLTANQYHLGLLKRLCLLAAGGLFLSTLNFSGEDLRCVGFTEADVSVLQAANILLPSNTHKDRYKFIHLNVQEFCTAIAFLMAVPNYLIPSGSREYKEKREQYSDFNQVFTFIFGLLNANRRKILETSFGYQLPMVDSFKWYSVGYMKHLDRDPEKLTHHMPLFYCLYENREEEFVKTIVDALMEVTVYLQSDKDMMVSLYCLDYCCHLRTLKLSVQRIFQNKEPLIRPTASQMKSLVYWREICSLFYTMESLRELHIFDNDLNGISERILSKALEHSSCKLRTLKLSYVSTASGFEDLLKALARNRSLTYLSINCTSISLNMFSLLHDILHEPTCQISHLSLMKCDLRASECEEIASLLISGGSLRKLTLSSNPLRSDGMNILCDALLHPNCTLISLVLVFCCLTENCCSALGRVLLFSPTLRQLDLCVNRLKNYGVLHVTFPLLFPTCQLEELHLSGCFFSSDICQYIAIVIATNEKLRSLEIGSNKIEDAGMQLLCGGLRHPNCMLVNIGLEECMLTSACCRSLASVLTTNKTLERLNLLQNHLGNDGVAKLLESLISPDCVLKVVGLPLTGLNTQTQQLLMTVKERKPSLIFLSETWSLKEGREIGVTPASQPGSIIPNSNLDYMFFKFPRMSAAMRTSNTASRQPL
Test: affinity purification with mass spectrometry; GFP-Trap agarose precipitation of NLRP11-eGFP (or eGFP as control) from doxycycline-induced HeLa FlpIn cells; Triton buffer lysate, 4°C, 3 h; on-bead trypsin digest, nanoLC-MS/MS

binding: binds
Substance: DDX3X (endogenous, HeLa) (from UniProt O00571 1-662)

Results are given in words; binding and its absence hold for the method and conditions named. In cells and extracts the contact can be indirect. A yes stands for co-enrichment or nearness to the bait. Other partners may have been found. Where a sequence is shown, tags or fusion partners need not be part of it.
